Data on 17 compounds can be found in the supplement of paper PMC9433722.

Where a name gives a salt, the structure may show the parent alone. This is one part of the list. Repeats are few or missing, and single values can be far off.

One assay relates to Saos-2. Description: cell viability (CCK-8) relative to DMSO control (% of control); higher = less cytotoxic. As to conditions: 10 µM; 48 h.
Another assay relates to U2OS. The assay is described as above. As to conditions: 10 µM; 48 h.

In the case of `CC1=C(/C=C/C(C)=C/C=C/C(C)=C\C(=O)O)C(C)(C)CCC1` [13-cis-Retinoic acid], the cell viability in the assay on Saos-2 came out at 96.2; with U2OS it was 91.9.

Regarding `Fc1ccc([C@@H]2CCNC[C@H]2COc2ccc3c(c2)OCO3)cc1` [Paroxetine·HCl], the cell viability with Saos-2 was 54.6; in the assay with U2OS, 23.

Take `c1ccc2c(c1)CCCC2C1=NCCN1` (centres undefined) [Tetrahydrozoline·HCl]: the cell viability with Saos-2 worked out at 107; with U2OS, 102.

With `Cc1ccc(C)c(OCCCC(C)(C)C(=O)O)c1` [Gemfibrozil], the results for the cell viability in the assay on Saos-2 and in the assay with U2OS were 72.7 and 98.3, respectively.

On to `CCCC1O[C@@H]2C[C@H]3[C@@H]4CCC5=CC(=O)C=C[C@]5(C)[C@H]4[C@@H](O)C[C@]3(C)[C@]2(C(=O)CO)O1` (some centres undefined) [Budesonide], for which the cell viability was found to be 121 in the assay with Saos-2 and 103 in the assay with U2OS.

In the case of `CCc1cc(C(N)=S)ccn1` [Ethionamide], the cell viability in the assay with Saos-2 came to 109; with U2OS, 93.8.

For `CC(C)Cc1ccc(C(C)C(=O)O)cc1` (centres undefined) [Ibuprofen], the values for the cell viability in the assay with Saos-2 and in the assay on U2OS were 55.5 and 103, respectively.

Consider `Cc1ccc(O)c([C@H](CCN(C(C)C)C(C)C)c2ccccc2)c1` [Tolterodine Tartrate], for which the cell viability in the assay on Saos-2 came out at 101; in the assay on U2OS, 110.

Take `C#C[C@]1(O)CC[C@H]2[C@@H]3CCC4=CC(=O)CC[C@@H]4[C@H]3CC[C@@]21CC` [Levonorgestrel]: the cell viability was 67.1 in the assay with Saos-2 and 94.9 in the assay with U2OS.

For the compound `NC(=O)N1c2ccccc2C=Cc2ccccc21` [Carbamazepine], the cell viability with Saos-2 came to 72.4; in the assay on U2OS it was 87.5.

Take `C[N+]1(C)[C@@H]2CC[C@H]1C[C@@H](OC(=O)C(O)c1ccccc1)C2` (some centres undefined) [Homatropine Methylbromide]: the cell viability in the assay on Saos-2 amounted to 112; in the assay on U2OS, 105.

Turning to `Nc1nc2[nH]cnc2c(=S)[nH]1` [Thioguanine], the cell viability in the assay on Saos-2 turned out to be 66; in the assay on U2OS it was 54.5.

As for `O=P(O)(O)C(Sc1ccc(Cl)cc1)P(=O)(O)O` [Tiludronate Disodium], the results for the cell viability in the assay with Saos-2 and in the assay with U2OS were 110 and 98.2, respectively.

Take `CO[C@H]1C[C@@H]2CC[C@@H](C)[C@@](O)(O2)C(=O)C(=O)N2CCCC[C@H]2C(=O)O[C@H]([C@H](C)C[C@@H]2CC[C@@H](O)[C@H](OC)C2)CC(=O)[C@H](C)/C=C(\C)[C@@H](O)[C@@H](OC)C(=O)[C@H](C)C[C@H](C)/C=C/C=C/C=C/1C` [Rapamycin]: the results for the cell viability with Saos-2 and with U2OS were 52 and 66.8, respectively.

`Nc1nc(Cl)nc2c1ncn2[C@@H]1O[C@H](CO)[C@@H](O)[C@@H]1F` [Clofarabine]: the cell viability in the assay with Saos-2 was 40.7; in the assay with U2OS it was 99.1.

As to `Cc1ccc(S(=O)(=O)NC(=O)NN2CCCCCC2)cc1` [Tolazamide], the cell viability in the assay on Saos-2 was found to be 66.2; with U2OS, 95.2.

Take `CC(C)(C)NC(=O)[C@@H]1C[C@@H]2CCCC[C@@H]2CN1C[C@@H](O)[C@H](Cc1ccccc1)NC(=O)[C@H](CC(N)=O)NC(=O)c1ccc2ccccc2n1` [Saquinavir Mesylate]: the cell viability in the assay with Saos-2 was 108; in the assay with U2OS, 93.6.
